Measured values as given in paper PMC3556083.

B1: HK1 (protein, UniProt P05708 1-918)
chain: MIAAQLLAYYFTELKDDQVKKIDKYLYAMRLSDEILIDILTRFKKEMKNGLSRDYNPTASVKMLPTFVRSIPDGSEKGDFIALDLGGSSFRILRVQVNHEKNQNVSMESEIYDTPENIVHGSGTQLFDHVADCLGDFMEKKKIKDKKLPVGFTFSFPCRQSKIDEAVLITWTKRFKASGVEGADVVKLLNKAIKKRGDYDANIVAVVNDTVGTMMTCGYDDQQCEVGLIIGTGTNACYMEELRHIDLVEGDEGRMCINTEWGAFGDDGSLEDIRTEFDRELDRGSLNPGKQLFEKMVSGMYMGELVRLILVKMAKEGLLFEGRITPELLTRGKFNTSDVSAIEKDKEGIQNAKEILTRLGVEPSDVDCVSVQHICTIVSFRSANLVAATLGAILNRLRDNKGTPRLRTTVGVDGSLYKMHPQYSRRFHKTLRRLVPDSDVRFLLSESGTGKGAAMVTAVAYRLAEQHRQIEETLAHFRLSKQTLMEVKKRLRTEMEMGLRKETNSKATVKMLPSFVRSIPDGTEHGDFLALDLGGTNFRVLLVKIRSGKKRTVEMHNKIYSIPLEIMQGTGDELFDHIVSCISDFLDYMGIKGPRMPLGFTFSFPCHQTNLDCGILISWTKGFKATDCEGHDVASLLRDAVKRREEFDLDVVAVVNDTVGTMMTCAYEEPTCEIGLIVGTGTNACYMEEMKNVEMVEGNQGQMCINMEWGAFGDNGCLDDIRTDFDKVVDEYSLNSGKQRFEKMISGMYLGEIVRNILIDFTKKGFLFRGQISEPLKTRGIFETKFLSQIESDRLALLQVRAILQQLGLNSTCDDSILVKTVCGVVSKRAAQLCGAGMAAVVEKIRENRGLDHLNVTVGVDGTLYKLHPHFSRIMHQTVKELSPKCTVSFLLSEDGSGKGAALITAVGVRLRGDPSIA
B2: SOD2 (protein, UniProt P07895 25-222)
chain: KHSLPDLPYDYGALEPHINAQIMQLHHSKHHATYVNNLNVTEEKYHEALAKGDVTTQVALQPALKFNGGGHINHSIFWTNLSPKGGGEPKGELLEAIKRDFGSFEKFKEKLTAVSVGVQGSGWGWLGFNKEQGRLQIAACSNQDPLQGTTGLIPLLGIDVWEHAYYLQYKNVRPDYLKAIWNVINWENVSQRYIVCKK
B3: EHD1 (protein, UniProt Q641Z6 1-534)
chain: MFSWVSKDARRKKEPELFQTVAEGLRQLYAQKLLPLEEHYRFHEFHSPALEDADFDNKPMVLLVGQYSTGKTTFIRHLIEQDFPGMRIGPEPTTDSFIAVMHGPTEGVVPGNALVVDPRRPFRKLNAFGNAFLNRFMCAQLPNPVLDSISIIDTPGILSGEKQRISRGYDFAAVLEWFAERVDRIILLFDAHKLDISDEFSEVIKALKNHEDKIRVVLNKADQIETQQLMRVYGALMWSLGKIINTPEVVRVYIGSFWSHPLLIPDNRKLFEAEEQDLFKDIQSLPRNAALRKLNDLIKRARLAKVHAYIISSLKKEMPNVFGKESKKKELVNNLGEIYQKIEREHQISSGDFPSLRKMQELLQTQDFSKFQALKPKLLDTVDDMLANDIARLMVMVRQEESLMPSQAVKGGAFDGTMNGPFGHGYGEGAGEGIDDVEWVVGKDKPTYDEIFYTLSPVNGKITGANAKKEMVKSKLPNTVLGKIWKLADVDKDGLLDDEEFALANHLIKVKLEGHELPADLPPHLIPPSKRRHE
B4: RAB21 (protein, UniProt Q6AXT5 1-223)
chain: MAAAGGGAAAAAGRAYSFKVVLLGEGCVGKTSLVLRYCENKFNDKHITTLQASFLTKKLNIGGKRVNLAIWDTAGQERFHALGPIYYRDSNGAILVYDVTDEDSFQKVKNWVKELRKMLGNEICLCIVGNKIDLEKERHVSIQEAESYAESVGAKHYHTSAKQNKGIEELFLDLCKRMIETAQVDERAKGNGSSQAGAARRGVQIIDDEPQAQSGSGGCCSSG
B5: INPPL1 (protein, UniProt Q9WVR3 1-1257)
chain: MASVCGAPSPGGALGSQAPAWYHRDLSRAAAEELLARAGRDGSFLVRDSESVAGAFALCVLYQKHVHTYRILPDGEDFLAVQTSQGVPVRRFQTLGELIGLYAQPNQGLVCALLLPVEGEREPDPPDDRDASDVEDEKPPLPPRSGSTSISVPAGPSSPLPAPETPTTPAAESTPNGLSTVSHEYLKGSYGLDLEAVRGGASNLPHLTRTLVTSCRRLHSEVDKVLSGLEILSKVFDQQSSPMVTRLLQQQSLPQTGEQELESLVLKLSVLKDFLSGIQKKALKALQDMSSTAPPAPLQPSIRKAKTIPVQAFEVKLDVTLGDLTKIGKSQKFTLSVDVEGGRLVLLRRQRDSQEDWTTFTHDRIRQLIKSQRVQNKLGVVFEKEKDRTQRKDFIFVSARKREAFCQLLQLMKNKHSKQDEPDMISVFIGTWNMGSVPPPKNVTSWFTSKGLGKALDEVTVTIPHDIYVFGTQENSVGDREWLDLLRGGLKELTDLDYRPIAMQSLWNIKVAVLVKPEHENRISHVSTSSVKTGIANTLGNKGAVGVSFMFNGTSFGFVNCHLTSGNEKTTRRNQNYLDILRLLSLGDRQLSAFDISLRFTHLFWFGDLNYRLDMDIQEILNYISRREFEPLLRVDQLNLEREKHKVFLRFSEEEISFPPTYRYERGSRDTYAWHKQKPTGVRTNVPSWCDRILWKSYPETHIICNSYGCTDDIVTSDHSPVFGTFEVGVTSQFISKKGLSKTSDQAYIEFESIEAIVKTASRTKFFIEFYSTCLEEYKKSFENDAQSSDNINFLKVQWSSRQLPTLKPILADIEYLQDQHLLLTVKSMDGYESYGECVVALKSMIGSTAQQFLTFLSHRGEETGNIRGSMKVRVPTERLGTRERLYEWISIDKDDTGAKSKAPSVLRGSQEHRSGSRKPTSTEASCPLSKLFEEPEKPPPTGRPPAPPRAVPREESLNPRLKSEGTPEQEGVAAPPPKNSFNNPAYYVLEGVPHQLLPLEPTSFARAPIPPTTKNKVAITVPAPQLGRHRTPRVGEGSSSDEDSGGTLPPPDFPPPPLPDSAIFLPPNLDPLSMPVVRGRSVGEARGPPPPKAHPRPPLPPGTSPASTFLEEVASADDRSCSVLQMAKTLSEVDYSPGPGRSALLPNPLELQLPRGPSDYGRPLSFPPPRIRESIQEDLAEEAPCPQGGRASGLGEAGMGAWLRAIGLERYEEGLVHNGWDDLEFLSDITEEDLEEAGVQDPAHKRLLLDTLQLSK
B6: PLA2G6 (protein, UniProt P97570 1-807)
chain: MQFFGRLVNTLSSVTNLFSNPFRVKEVSLADYASSERVREEGQLILLQNASNRTWDCVLVSPRNPQSGFRLFQLESEADALVNFQQYSSQLPPFYESSVQVLHVEVLQHLTDLIRNHPSWTVTHLAVELGIRECFHHSRIISCANSTENEEGCTPLHLACRKGDSEILVELVQYCHAQMDVTDNKGETAFHYAVQGDNPQVLQLLGKNASAGLNQVNNQGLTPLHLACQMGKQEMVRVLLLCNARCNIMGPGGFPIHTAMKFSQKGCAEMIISMDSNQIHSKDPRYGASPLHWAKNAEMARMLLKRGCDVDSTSASGNTALHVAVTRNRFDCVMVLLTYGANAGARGEHGNTPLHLAMSKDNMEMVKALIVFGAEVDTPNDFGETPAFIASKISKLITRKALLTLLKTVGADYHFPFIQGVSTEQSSAAGPHPFFSLDRTQPPTISLNNLELQDLMPVSRARKPAFILSSMRDEKRSHDHLLCLDGGGVKGLVIIQLLIAIEKASGVATKDLFDWVAGTSTGGILALAILHSKSMAYMRGVYFRMKDEVFRGSRPYESGPLEEFLKREFGEHTKMTDVKKPKVMLTGTLSDRQPAELHLFRNYDAPEAVREPRCTPNINLKPPTQPADQLVWRAARSSGAAPTYFRPNGRFLDGGLLANNPTLDAMTEIHEYNQDMIRKGQGNKVKKLSIVVSLGTGKSPQVPVTCVDVFRPSNPWELAKTVFGAKELGKMVVDCCTDPDGRAVDRARAWCEMVGIQYFRLNPQLGSDIMLDEVSDAVLVNALWETEVYIYEHREEFQKLVQLLLSP
B7: TXN (protein, UniProt P11232 1-105)
chain: MVKLIESKEAFQEALAAAGDKLVVVDFSATWCGPCKMIKPFFHSLCDKYSNVVFLEVDVDDCQDVAADCEVKCMPTFQFYKKGQKVGEFSGANKEKLEATITEFA

Biological target: β2-adrenergic receptor (UniProt P07550)
Experiment: affinity purification with mass spectrometry; purified Flag-β2AR in rHDL immobilised on M1 anti-Flag resin, occupied by 50 µM BI-167107 (full agonist) or 50 µM carazolol (inverse agonist); adult rat heart cytosol (10 mg/ml, 4 mM CaCl2) overnight at 4°C; eluted with FLAG peptide and EDTA; gel slices, LC-MS; proteins of the M1 resin, empty rHDL and Ni-NTA controls subtracted; hits of either or both samples; only the target purified

Binder | binding
B1 | binds
B2 | binds
B3 | binds
B4 | binds
B5 | binds
B6 | binds
B7 | binds

No constants are given. Whether binding was seen depends on the method and setting. Binding seen in cells or lysates may run through a third protein. These calls come from enrichment with a bait or labelling near it, and not all partners need be listed.
